The assay concerns the target T1, FLAG-MCM3 (mouse MCM3 expressed in CHO-EBNALT85 cells) (mouse) (UniProt P25206).
T1 sequence: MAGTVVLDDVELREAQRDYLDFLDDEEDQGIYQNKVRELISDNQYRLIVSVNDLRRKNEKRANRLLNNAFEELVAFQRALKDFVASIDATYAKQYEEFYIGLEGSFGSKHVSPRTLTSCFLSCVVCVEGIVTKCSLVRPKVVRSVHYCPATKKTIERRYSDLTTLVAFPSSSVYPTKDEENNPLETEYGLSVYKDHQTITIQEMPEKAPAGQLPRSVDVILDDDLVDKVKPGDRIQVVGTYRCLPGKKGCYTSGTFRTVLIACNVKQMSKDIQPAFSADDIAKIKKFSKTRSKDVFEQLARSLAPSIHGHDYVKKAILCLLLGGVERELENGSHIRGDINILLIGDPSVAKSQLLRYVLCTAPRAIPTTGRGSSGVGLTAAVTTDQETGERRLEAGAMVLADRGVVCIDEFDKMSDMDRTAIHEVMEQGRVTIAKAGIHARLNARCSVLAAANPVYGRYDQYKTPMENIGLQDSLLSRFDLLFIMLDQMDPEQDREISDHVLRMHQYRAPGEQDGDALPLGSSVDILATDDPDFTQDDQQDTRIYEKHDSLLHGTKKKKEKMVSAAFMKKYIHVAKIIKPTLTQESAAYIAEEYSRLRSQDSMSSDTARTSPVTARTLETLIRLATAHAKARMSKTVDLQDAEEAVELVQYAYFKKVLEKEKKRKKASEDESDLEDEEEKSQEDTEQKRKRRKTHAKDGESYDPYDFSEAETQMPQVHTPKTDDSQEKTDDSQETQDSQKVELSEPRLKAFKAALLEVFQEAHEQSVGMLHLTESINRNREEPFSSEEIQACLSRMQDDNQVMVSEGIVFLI
Kind of assay: affinity purification with mass spectrometry; anti-FLAG M2 beads on extracts of FLAG-MCM3 expressing CHOEBNALT85 cells, 150 mM KCl, pH 7.8, 4 °C, FLAG peptide elution, Superdex 200 fractions analysed by nano-LC/MS/MS.

Results are given in words; binding and its absence hold for the method and conditions named. In cells and extracts the contact can be indirect. Here binding means that the protein was enriched with, or labelled near, the bait; the list need not be complete. Where a sequence is shown, tags or fusion partners need not be part of it.

This is an account of results in paper PMC6092318, “Keap1–MCM3 interaction is a potential coordinator of molecular machineries of antioxidant response and genomic DNA replication in metazoa” (Scientific Reports, 2018).

With “Keap1 (endogenous, CHO cells) (Chinese hamster (endogenous in CHO))”, the binding entry is recorded as “binds”. The result for “MCM-BP (endogenous, CHO cells) (Chinese hamster (endogenous in CHO))” reads “binds”.
